The supplement of paper PMC12819154, “High-throughput peptide-centric local stability assay extends protein–ligand identification to membrane proteins, tissues and bacteria” (Nature Structural & Molecular Biology, 2025)
The other results are listed elsewhere or left out. Small differences around the control level are noise.

Protein sequences, listed by entry. Tags and fused reporters are not part of them. Lines headed by an entry give the natural chain unless they say otherwise; changes in a name come on top.
UniProt Q8K009: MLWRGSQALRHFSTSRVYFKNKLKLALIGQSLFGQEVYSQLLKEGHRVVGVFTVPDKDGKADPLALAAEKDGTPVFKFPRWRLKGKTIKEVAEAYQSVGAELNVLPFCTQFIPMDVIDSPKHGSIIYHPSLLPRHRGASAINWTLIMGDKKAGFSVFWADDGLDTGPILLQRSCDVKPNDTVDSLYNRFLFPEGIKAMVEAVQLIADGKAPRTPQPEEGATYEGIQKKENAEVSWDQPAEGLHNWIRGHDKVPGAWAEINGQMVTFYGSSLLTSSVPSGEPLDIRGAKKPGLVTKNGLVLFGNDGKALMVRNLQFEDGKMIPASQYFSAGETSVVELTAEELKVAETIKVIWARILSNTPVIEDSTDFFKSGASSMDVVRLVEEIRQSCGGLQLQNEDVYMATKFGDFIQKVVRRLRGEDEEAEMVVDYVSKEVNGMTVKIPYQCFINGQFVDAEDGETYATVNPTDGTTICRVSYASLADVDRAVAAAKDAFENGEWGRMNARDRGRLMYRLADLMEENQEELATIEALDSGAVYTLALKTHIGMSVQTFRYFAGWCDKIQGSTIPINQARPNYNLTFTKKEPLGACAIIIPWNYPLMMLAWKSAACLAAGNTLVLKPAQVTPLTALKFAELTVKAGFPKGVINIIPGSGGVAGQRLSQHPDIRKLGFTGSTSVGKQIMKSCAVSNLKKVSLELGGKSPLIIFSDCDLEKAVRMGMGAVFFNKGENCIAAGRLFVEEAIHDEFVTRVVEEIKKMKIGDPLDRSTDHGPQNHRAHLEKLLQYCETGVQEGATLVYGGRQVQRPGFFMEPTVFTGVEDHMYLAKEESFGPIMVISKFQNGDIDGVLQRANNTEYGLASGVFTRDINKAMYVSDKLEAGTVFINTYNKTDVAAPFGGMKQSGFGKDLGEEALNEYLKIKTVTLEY
UniProt Q8CID0: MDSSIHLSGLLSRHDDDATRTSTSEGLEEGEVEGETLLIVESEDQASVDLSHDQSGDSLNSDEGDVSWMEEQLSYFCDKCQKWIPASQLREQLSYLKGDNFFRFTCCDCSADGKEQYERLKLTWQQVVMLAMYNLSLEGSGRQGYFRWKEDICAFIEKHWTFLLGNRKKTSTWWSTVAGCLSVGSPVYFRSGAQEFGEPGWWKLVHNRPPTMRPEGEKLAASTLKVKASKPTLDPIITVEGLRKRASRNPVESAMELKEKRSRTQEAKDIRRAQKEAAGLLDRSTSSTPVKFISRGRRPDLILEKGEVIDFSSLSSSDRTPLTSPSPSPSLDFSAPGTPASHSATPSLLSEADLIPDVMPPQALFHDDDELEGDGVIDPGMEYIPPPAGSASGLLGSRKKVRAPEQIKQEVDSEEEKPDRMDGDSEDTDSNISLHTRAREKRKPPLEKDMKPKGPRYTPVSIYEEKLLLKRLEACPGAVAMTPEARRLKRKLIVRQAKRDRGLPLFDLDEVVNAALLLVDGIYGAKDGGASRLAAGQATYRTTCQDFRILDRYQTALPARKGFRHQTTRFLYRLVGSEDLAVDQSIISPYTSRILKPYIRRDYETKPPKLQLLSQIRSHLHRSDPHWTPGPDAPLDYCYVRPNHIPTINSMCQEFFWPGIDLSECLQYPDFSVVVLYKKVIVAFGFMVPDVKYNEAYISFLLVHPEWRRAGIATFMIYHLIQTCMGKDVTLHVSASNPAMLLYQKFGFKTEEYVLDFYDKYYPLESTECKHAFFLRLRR
UniProt Q8CCS6: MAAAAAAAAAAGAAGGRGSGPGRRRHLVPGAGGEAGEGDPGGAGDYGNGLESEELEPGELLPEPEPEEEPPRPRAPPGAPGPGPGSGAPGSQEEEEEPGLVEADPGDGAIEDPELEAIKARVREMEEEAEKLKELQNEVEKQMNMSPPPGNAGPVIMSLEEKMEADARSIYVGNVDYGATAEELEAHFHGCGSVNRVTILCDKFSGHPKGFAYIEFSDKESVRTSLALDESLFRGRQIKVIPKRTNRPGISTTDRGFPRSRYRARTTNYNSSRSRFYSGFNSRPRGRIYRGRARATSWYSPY
UniProt Q8CIH5: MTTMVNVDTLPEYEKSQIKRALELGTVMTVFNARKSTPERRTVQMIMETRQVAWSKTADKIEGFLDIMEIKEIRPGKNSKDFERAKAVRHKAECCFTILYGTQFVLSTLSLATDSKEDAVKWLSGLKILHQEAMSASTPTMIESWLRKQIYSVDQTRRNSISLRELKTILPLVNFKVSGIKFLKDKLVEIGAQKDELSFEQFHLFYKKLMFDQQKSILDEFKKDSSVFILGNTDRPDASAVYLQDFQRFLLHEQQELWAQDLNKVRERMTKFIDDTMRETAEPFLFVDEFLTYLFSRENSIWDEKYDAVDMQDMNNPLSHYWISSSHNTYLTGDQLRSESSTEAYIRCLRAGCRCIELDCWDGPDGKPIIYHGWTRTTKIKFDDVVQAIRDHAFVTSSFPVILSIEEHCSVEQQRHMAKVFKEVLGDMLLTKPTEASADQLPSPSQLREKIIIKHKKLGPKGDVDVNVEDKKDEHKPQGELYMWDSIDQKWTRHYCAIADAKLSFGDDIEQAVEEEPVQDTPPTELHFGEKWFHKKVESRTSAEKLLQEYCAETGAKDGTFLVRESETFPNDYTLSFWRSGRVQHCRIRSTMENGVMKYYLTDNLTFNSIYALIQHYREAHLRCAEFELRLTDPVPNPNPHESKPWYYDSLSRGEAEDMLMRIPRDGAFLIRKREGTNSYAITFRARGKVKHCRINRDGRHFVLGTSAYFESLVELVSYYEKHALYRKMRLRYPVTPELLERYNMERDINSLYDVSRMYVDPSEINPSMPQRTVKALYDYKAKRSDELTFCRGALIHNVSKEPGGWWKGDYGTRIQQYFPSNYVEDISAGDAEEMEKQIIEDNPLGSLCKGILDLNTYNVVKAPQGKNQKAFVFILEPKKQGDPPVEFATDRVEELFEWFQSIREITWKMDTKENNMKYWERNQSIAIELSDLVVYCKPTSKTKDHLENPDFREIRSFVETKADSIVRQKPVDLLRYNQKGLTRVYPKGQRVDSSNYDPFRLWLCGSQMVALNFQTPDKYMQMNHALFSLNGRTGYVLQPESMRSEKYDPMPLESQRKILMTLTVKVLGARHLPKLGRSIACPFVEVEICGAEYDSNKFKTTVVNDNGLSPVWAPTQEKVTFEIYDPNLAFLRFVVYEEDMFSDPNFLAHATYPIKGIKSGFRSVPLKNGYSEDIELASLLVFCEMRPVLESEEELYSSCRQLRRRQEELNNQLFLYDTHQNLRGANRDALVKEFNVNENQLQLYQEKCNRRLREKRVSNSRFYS
UniProt Q8JZX9: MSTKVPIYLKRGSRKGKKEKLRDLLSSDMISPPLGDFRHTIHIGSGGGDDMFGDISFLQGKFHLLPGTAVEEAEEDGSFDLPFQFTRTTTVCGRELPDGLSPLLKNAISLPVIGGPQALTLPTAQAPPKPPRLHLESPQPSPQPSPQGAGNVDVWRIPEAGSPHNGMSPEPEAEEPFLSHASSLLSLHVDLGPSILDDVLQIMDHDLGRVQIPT
UniProt Q8K0H1: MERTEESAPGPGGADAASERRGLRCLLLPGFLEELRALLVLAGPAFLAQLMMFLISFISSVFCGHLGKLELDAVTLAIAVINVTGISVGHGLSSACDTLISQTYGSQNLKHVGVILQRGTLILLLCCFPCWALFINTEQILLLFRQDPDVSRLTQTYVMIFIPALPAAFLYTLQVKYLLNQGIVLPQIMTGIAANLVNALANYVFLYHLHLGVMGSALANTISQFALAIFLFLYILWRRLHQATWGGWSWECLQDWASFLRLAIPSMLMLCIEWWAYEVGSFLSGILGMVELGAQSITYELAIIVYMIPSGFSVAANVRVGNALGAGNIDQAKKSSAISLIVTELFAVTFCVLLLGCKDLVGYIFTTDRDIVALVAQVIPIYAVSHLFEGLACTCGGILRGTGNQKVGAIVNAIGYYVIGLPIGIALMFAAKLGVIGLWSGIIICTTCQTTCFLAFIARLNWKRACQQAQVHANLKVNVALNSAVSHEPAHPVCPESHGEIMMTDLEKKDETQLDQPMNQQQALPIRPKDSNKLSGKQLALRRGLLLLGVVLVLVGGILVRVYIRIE
UniProt Q8CHP8: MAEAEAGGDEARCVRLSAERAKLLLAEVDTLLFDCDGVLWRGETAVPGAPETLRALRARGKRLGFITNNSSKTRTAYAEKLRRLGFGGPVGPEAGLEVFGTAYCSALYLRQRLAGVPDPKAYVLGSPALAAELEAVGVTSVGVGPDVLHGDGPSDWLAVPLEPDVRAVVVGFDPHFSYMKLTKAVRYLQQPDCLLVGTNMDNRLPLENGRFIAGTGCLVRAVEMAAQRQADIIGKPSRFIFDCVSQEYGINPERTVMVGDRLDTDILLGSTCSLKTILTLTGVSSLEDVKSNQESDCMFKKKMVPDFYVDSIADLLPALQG
UniProt Q8CHP6: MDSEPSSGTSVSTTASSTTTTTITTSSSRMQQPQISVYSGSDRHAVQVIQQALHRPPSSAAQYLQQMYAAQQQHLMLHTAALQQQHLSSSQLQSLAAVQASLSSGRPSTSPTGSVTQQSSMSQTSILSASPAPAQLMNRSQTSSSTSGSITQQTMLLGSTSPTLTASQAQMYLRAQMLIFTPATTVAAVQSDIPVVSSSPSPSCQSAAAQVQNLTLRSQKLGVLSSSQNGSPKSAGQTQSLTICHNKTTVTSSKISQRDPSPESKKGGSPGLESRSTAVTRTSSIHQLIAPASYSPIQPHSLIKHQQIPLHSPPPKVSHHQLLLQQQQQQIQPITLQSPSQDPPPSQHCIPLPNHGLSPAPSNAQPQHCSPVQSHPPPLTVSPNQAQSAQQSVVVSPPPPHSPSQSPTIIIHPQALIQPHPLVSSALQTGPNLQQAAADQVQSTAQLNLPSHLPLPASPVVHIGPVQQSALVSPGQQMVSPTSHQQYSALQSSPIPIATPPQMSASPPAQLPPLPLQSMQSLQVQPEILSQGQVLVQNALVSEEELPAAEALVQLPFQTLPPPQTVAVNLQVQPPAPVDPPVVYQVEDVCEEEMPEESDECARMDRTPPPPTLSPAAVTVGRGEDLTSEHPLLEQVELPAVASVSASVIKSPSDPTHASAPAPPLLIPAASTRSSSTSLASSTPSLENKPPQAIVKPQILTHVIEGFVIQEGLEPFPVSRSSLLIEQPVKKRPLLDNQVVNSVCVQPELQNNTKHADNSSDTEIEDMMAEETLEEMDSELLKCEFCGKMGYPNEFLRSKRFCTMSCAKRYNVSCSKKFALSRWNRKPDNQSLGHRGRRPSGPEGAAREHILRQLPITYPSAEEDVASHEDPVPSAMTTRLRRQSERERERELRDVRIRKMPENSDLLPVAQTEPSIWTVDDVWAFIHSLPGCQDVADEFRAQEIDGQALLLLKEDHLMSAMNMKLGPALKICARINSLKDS
UniProt Q8CEE7: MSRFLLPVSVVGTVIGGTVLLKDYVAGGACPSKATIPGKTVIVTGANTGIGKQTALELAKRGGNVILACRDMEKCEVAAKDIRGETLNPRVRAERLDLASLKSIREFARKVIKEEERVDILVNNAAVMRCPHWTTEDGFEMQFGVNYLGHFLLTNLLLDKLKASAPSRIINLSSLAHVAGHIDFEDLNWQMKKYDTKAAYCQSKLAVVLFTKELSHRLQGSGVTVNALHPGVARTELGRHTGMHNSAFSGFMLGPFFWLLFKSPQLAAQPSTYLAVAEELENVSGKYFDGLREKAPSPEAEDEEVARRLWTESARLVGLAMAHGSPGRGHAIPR
UniProt Q8CIP4: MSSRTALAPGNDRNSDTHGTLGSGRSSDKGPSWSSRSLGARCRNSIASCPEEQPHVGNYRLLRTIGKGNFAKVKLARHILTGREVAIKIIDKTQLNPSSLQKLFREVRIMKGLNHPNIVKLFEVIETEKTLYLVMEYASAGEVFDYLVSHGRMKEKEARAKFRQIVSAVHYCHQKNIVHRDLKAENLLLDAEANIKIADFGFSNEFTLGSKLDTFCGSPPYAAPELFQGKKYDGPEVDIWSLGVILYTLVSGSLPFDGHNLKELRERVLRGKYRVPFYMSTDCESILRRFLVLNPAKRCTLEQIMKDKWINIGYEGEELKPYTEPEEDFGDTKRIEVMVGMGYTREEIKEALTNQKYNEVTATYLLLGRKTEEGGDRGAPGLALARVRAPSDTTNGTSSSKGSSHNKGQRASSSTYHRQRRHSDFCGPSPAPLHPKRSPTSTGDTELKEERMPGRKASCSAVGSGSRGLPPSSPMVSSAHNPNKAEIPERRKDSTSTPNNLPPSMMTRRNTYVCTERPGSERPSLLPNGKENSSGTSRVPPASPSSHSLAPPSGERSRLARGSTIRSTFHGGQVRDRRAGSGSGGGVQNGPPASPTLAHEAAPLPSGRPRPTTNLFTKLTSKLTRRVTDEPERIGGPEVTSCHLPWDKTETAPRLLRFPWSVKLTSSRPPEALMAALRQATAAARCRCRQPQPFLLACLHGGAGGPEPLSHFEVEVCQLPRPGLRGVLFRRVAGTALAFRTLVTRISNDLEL
UniProt Q8CBY0: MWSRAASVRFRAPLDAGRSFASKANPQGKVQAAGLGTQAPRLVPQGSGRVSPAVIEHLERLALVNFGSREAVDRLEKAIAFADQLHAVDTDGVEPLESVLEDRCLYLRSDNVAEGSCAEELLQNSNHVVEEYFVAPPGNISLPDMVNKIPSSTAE

Compound: CN[C@@H]1C[C@H]2O[C@@](C)([C@@H]1OC)n1c3ccccc3c3c4c(c5c6ccccc6n2c5c31)C(=O)NC4 [staurosporine]
Experiment: log2 fold change of tryptic peptide abundance, ligand vs vehicle (limited proteolysis) (log2 ratio); higher = more trypsin-susceptible (destabilized)
Settings: ligand concentration: 20 uM; sample: mouse liver crude lysate; replicate design: treated separately

Target	log2 fold change
UniProt Q8CBY8 (peptide sequence: KAYYLACGFCR, peptide start residue: 105)	0.433
UniProt Q8K009 (peptide sequence: HGSIIYHPSLLPR, peptide start residue: 100)	0.102
UniProt Q8CG16 (peptide sequence: FVRLPVADSEACQR, peptide start residue: 611)	-0.525
UniProt Q8K0G8 (peptide sequence: AEAAALSPQCR, peptide start residue: 77)	-0.329
UniProt Q8CID0 (peptide sequence: LQLLSQIR, peptide start residue: 610)	-0.298
UniProt Q8CI78 (peptide sequence: HVMQVLER, peptide start residue: 247)	0.345
UniProt Q8CI11 (peptide sequence: YTVPEYK, peptide start residue: 348)	-0.151
UniProt Q8CB44 (peptide sequence: GHLEIALLEK, peptide start residue: 133)	-0.273
UniProt Q8CG03 (peptide sequence: KELNMEPADLMNR, peptide start residue: 785)	0.251
UniProt Q8CCS6 (peptide sequence: LKELQNEVEK, peptide start residue: 132)	0.215
UniProt Q8K0G5 (peptide sequence: FLVGTQSLK, peptide start residue: 30)	0.0406
UniProt Q8CH25 (peptide sequence: DVQDAIAQSPEKEAK, peptide start residue: 281)	-0.491
UniProt Q8CB96 (peptide sequence: SELLSLLK, peptide start residue: 22)	-0.209
UniProt Q8CI94 (peptide sequence: GIAGLGDVAEVR, peptide start residue: 18)	-0.108
UniProt Q8CIH5 (peptide sequence: RRQEELNNQLFLYDTHQNLR, peptide start residue: 1205)	-0.553
UniProt Q8CHC8 (peptide sequence: GLGAVPLKR, peptide start residue: 1041)	-0.243

Target	log2 fold change
UniProt Q8JZX9 (peptide sequence: ELPDGLSPLLK, peptide start residue: 95)	-0.233
UniProt Q8K0H1 (peptide sequence: KDETQLDQPMNQQQALPIRPK, peptide start residue: 509)	-0.212
UniProt Q8JZU6 (peptide sequence: LRDAFPEDR, peptide start residue: 67)	-0.617
UniProt Q8CHT3 (peptide sequence: EHARCGLLLLR, peptide start residue: 54)	-0.72
UniProt Q8CHP8 (peptide sequence: AVVVGFDPHFSYMK, peptide start residue: 167)	-0.463
UniProt Q8JZN5 (peptide sequence: TVETLLLR, peptide start residue: 515)	0.174
UniProt Q8CHP6 (peptide sequence: FCTMSCAK, peptide start residue: 801)	0.405
UniProt Q8CEE7 (peptide sequence: EKAPSPEAEDEEVARR, peptide start residue: 293)	-0.182
UniProt Q8CE22 (peptide sequence: YTPEEIEKLK, peptide start residue: 227)	0.6
UniProt Q8CHP0 (peptide sequence: VDPEVRPEK, peptide start residue: 352)	-0.124
UniProt Q8CIP4 (peptide sequence: TALAPGNDR, peptide start residue: 5)	-0.797
UniProt Q8CD15 (peptide sequence: AHFLQLR, peptide start residue: 119)	0.455
UniProt Q8CBY0 (peptide sequence: VSPAVIEHLER, peptide start residue: 50)	0.2
UniProt Q8CFY5 (peptide sequence: LHTDDLPGILAR, peptide start residue: 147)	0.493
UniProt Q8CF89 (peptide sequence: LSAELLLGQLNTEHTEADVRR, peptide start residue: 84)	0.419

Already shown: an excerpt of the list.
Target	log2 fold change
UniProt Q8CHP8 (peptide sequence: AVVVGFDPHFSYMK, peptide start residue: 167)	-0.463
UniProt Q8JZN5 (peptide sequence: TVETLLLR, peptide start residue: 515)	0.174
UniProt Q8CHP6 (peptide sequence: FCTMSCAK, peptide start residue: 801)	0.405
UniProt Q8CEE7 (peptide sequence: EKAPSPEAEDEEVARR, peptide start residue: 293)	-0.182
UniProt Q8CE22 (peptide sequence: YTPEEIEKLK, peptide start residue: 227)	0.6
UniProt Q8CHP0 (peptide sequence: VDPEVRPEK, peptide start residue: 352)	-0.124
UniProt Q8CIP4 (peptide sequence: TALAPGNDR, peptide start residue: 5)	-0.797
UniProt Q8CD15 (peptide sequence: AHFLQLR, peptide start residue: 119)	0.455
